{
  "source": "the supplement of paper PMC7858590",
  "note": "Values joined by “and” are separate entries in the source; they are usually repeats but may differ in a detail not shown here. Identical values can stand only once. ± gives the standard deviation of the averaged measurements. In all, about 3,800 compounds were measured (“cell shape (eccentricity) Z-score vs DMSO control”: median about 1.1, lowest 2% from about -4.7 on). The list shows a part of the results.",
  "data": [
    {"system": "human monocyte-derived macrophages (M0)", "assay": "cell shape (eccentricity) Z-score vs DMSO control; higher = more elongated, M2-like morphology", "settings": "20 µM; 24 h; macrophage state: M0 (M-CSF)", "values": [
      {"smiles": "Cc1cc(NC(=O)C2C(=O)c3ccccc3S(=O)(=O)N2C)no1", "note": "(centres undefined)", "cell shape (Z-score)": 6.33},
      {"smiles": "CN(C(=O)CN(CCO)CC(=O)N(C)C(C)(C)Cc1ccccc1)C(C)(C)Cc1ccccc1", "cell shape (Z-score)": 0.879},
      {"smiles": "CC1=CC(=O)CC2[C@@]1(C)CC[C@@H](C)[C@]2(C)CCC(C)CC(=O)O", "note": "(some centres undefined)", "cell shape (Z-score)": -1.95},
      {"smiles": "Cc1nc(-c2ccc(OCC(C)C)c(C#N)c2)sc1C(=O)O", "cell shape (Z-score)": 0.295},
      {"smiles": "CN(Cc1ccccc1)Cc1ccccc1", "cell shape (Z-score)": -0.715},
      {"smiles": "C/C(=C\\CC[C@@H](C)[C@H]1CC[C@@]2(C)C3CC[C@H]4C(C)(C)[C@@H](OC5OC(CO)C(OC6OC(CO)C(O)C(O)C6O)C(O)C5O)CC[C@@]45C[C@@]35CC(O)[C@]12C)C(=O)O", "note": "(some centres undefined)", "cell shape (Z-score)": 0.155},
      {"smiles": "Oc1cccc(-c2nc(N3CCOCC3)c3oc4ncccc4c3n2)c1", "cell shape (Z-score)": 5.34},
      {"smiles": "O=C(c1ccc(OCCN2CCCCC2)cc1)c1c(-c2ccc(O)cc2)sc2cc(O)ccc12", "cell shape (Z-score)": 0.689},
      {"smiles": "COc1cc2c(cc1OC)-c1cc3ccc(OC)c(OC)c3c[n+]1CC2", "cell shape (Z-score)": 0.786},
      {"smiles": "CCCCCc1c2c(cc(O)c1C(=O)O)OC(=O)c1c(cc(OC)cc1C(=O)CCCC)O2", "cell shape (Z-score)": 5.03},
      {"smiles": "O=c1oc(-c2ccc(C(F)(F)F)cc2)nn1Cc1cc(Cl)ccc1O", "cell shape (Z-score)": 1.08},
      {"smiles": "C[C@@H]1O[C@@H](Oc2cc(O)c3c(=O)c(O[C@@H]4O[C@@H](C)[C@H](O[C@@H]5O[C@@H](C)[C@H](O)[C@@H](O)[C@H]5O)[C@@H](O)[C@H]4O)c(-c4ccc(O)cc4)oc3c2)[C@H](O)[C@H](O)[C@H]1O", "cell shape (Z-score)": 6.14},
      {"smiles": "COc1cc(OC)c2c(c1)OC(c1ccccc1)CC2=O", "note": "(centres undefined)", "cell shape (Z-score)": 3.11},
      {"smiles": "C=C(C(=O)O[C@H]1CC=C(C)C[C@H](O)[C@H]2[C@H](C)C(=O)O[C@@H]2/C=C/1C)[C@@H]1CCC(=C)[C@@H]2C[C@H](O[C@@H]3O[C@H](CO[C@H]4OC[C@](O)(CO)[C@H]4O)[C@@H](O)[C@H](O)[C@H]3O)C(=C)[C@@H]2C1", "cell shape (Z-score)": -4.65},
      {"smiles": "CC(C)(CO)C(O)C(=O)NCCC(=O)NCCSSCCNC(=O)CCNC(=O)C(O)C(C)(C)CO", "note": "(centres undefined)", "cell shape (Z-score)": 1.73},
      {"smiles": "CC1(C)CC[C@@]2(C(=O)O)C(C1)C1=CCC3[C@@]4(C)CC[C@H](O[C@@H]5O[C@H](C(=O)O)[C@@H](O[C@@H]6OC[C@@H](O)[C@H](O)[C@H]6O)[C@H](O)[C@H]5O)C(C)(C)C4CC[C@@]3(C)[C@]1(C)C[C@H]2O", "note": "(some centres undefined)", "cell shape (Z-score)": 0.257},
      {"smiles": "Cc1c(O)cc2c(c1O)C(=O)CC(c1ccc(O)cc1)O2", "note": "(centres undefined)", "cell shape (Z-score)": -2.24},
      {"smiles": "COc1cc(-c2coc3cc(OCc4ccccc4)c(OC)c(O)c3c2=O)cc(O)c1OC", "cell shape (Z-score)": 0.701},
      {"smiles": "CC1(C)CC[C@]2(C(=O)O[C@@H]3OC[C@H](O[C@@H]4OC[C@H](O)[C@H](O)[C@H]4O)[C@H](O)[C@H]3O)CC[C@]3(C)C(=CCC4[C@@]5(C)C[C@H](O)[C@H](O[C@@H]6O[C@H](C(=O)O)[C@@H](O)[C@H](O[C@@H]7OC[C@H](O)[C@H](O)[C@H]7O)[C@H]6O)[C@@](C)(CO)C5CC[C@]43C)[C@@H]2C1", "note": "(some centres undefined)", "cell shape (Z-score)": -3.31},
      {"smiles": "CCOC(=O)Nc1nc2ccccc2[nH]1", "cell shape (Z-score)": 0.525},
      {"smiles": "O=C(O)c1cc([N+](=O)[O-])ccc1NCCCc1ccccc1", "cell shape (Z-score)": 4.91},
      {"smiles": "CS(=O)(=O)c1ccc(C(O)[C@H](CF)NC(=O)C(Cl)Cl)cc1", "note": "(some centres undefined)", "cell shape (Z-score)": 0.775},
      {"smiles": "Nc1nc(Nc2ccccc2)nc2c1ncn2C1OC(CO)C(O)C1O", "note": "(centres undefined)", "cell shape (Z-score)": 7.34},
      {"smiles": "CC(=O)Nc1ccc(OC(=O)c2ccccc2O)cc1", "cell shape (Z-score)": 2.47},
      {"smiles": "Cc1ccc(F)c(NC(=O)Nc2ccc(-c3cccc4[nH]nc(N)c34)cc2)c1", "cell shape (Z-score)": -2.2},
      {"smiles": "C[C@@H]1CC[C@]2(C(=O)OC3OC(CO)C(OC4OC(CO)C(O)C(O)C4O)C(O)C3O)CC[C@]3(C)C(=CCC4[C@@]5(C)CC[C@H](O)[C@](C)(C(=O)O)C5CC[C@]43C)C2[C@]1(C)O", "note": "(some centres undefined)", "cell shape (Z-score)": 0.609},
      {"smiles": "OCc1ccccc1O[C@@H]1O[C@H](CO)[C@@H](O)[C@H](O)[C@H]1O", "cell shape (Z-score)": 2.23},
      {"smiles": "COc1cc(OC)c(NC(=O)Nc2cc(C)on2)cc1Cl", "cell shape (Z-score)": 1.96},
      {"smiles": "COc1cc(OC)c2ccc(=O)oc2c1", "cell shape (Z-score)": 1.58},
      {"smiles": "c1cnc(N2CCN(Cc3ccc4c(c3)OCO4)CC2)nc1", "cell shape (Z-score)": 0.297},
      {"smiles": "NC(=O)Cc1ccc(O)c(Cl)c1", "cell shape (Z-score)": 0.222},
      {"smiles": "O=C(O)c1ccccc1Nc1ccccc1", "cell shape (Z-score)": 2.81},
      {"smiles": "CCN(CCCCOC(=O)c1ccc(OC)c(OC)c1)C(C)Cc1ccc(OC)cc1", "note": "(centres undefined)", "cell shape (Z-score)": -3.63},
      {"smiles": "CCCCCCOc1ccccc1C(N)=O", "cell shape (Z-score)": 7.11},
      {"smiles": "CC(=O)c1cc2ccccc2oc1=O", "cell shape (Z-score)": 3.02},
      {"smiles": "O=c1cc(-c2ccccc2)oc2cc(O)ccc12", "cell shape (Z-score)": 4.41},
      {"smiles": "CCN(CC)CCNC(=O)c1ccc(N)cc1", "cell shape (Z-score)": 0.846},
      {"smiles": "CC(=O)NC(Cc1ccccc1)C(=O)O", "note": "(centres undefined)", "cell shape (Z-score)": 1.6},
      {"smiles": "CN1Cc2c(C(=O)OC(C)(C)C)ncn2-c2ccsc2C1=O", "cell shape (Z-score)": 0.413},
      {"smiles": "C/C=C/c1ccc(O)cc1C(=O)C(C)O", "note": "(centres undefined)", "cell shape (Z-score)": "0.694 ± 1.1"},
      {"smiles": "COC1C(O)C(CO)OC1n1cnc2c(NC3CCCCC3)ncnc21", "note": "(centres undefined)", "cell shape (Z-score)": 1.49},
      {"smiles": "CC(O)CCCc1cc(O)cc(O[C@@H]2O[C@H](CO)[C@@H](O)[C@H](O)[C@H]2O)c1", "note": "(some centres undefined)", "cell shape (Z-score)": 0.302},
      {"smiles": "CN(C(=O)CCCOc1ccc2[nH]c(=O)ccc2c1)C1CCCCC1", "cell shape (Z-score)": "2.14 and 3.02"},
      {"smiles": "COc1c(OC)c2c(C)cccc2oc1=O", "cell shape (Z-score)": 3.28},
      {"smiles": "CC1(C)CC[C@]2(C(=O)O)CC[C@]3(C)C(=CCC4[C@@]5(C)CC[C@@H](O)C(C)(C)C5CC[C@]43C)C2C1", "note": "(some centres undefined)", "cell shape (Z-score)": 9.58},
      {"smiles": "N#CC(=Cc1ccc(O)c(O)c1)C(=O)Nc1ccccc1", "cell shape (Z-score)": -0.32},
      {"smiles": "O=P(O)(O)C(Sc1ccc(Cl)cc1)P(=O)(O)O", "cell shape (Z-score)": 1.64},
      {"smiles": "NC[C@@H]1O[C@H](c2ccccc2)Cc2c1ccc(O)c2O", "cell shape (Z-score)": 2.59},
      {"smiles": "O=c1cc(-c2ccc(O)cc2)oc2cc(O[C@@H]3O[C@H](CO)[C@@H](O)[C@H](O)[C@H]3O[C@@H]3OC[C@](O)(CO)[C@H]3O)cc(O)c12", "cell shape (Z-score)": 2.06},
      {"smiles": "O=C(Nc1ccc(Cl)cc1)Nc1ccc(Cl)c(C(F)(F)F)c1", "cell shape (Z-score)": -1.14},
      {"smiles": "Oc1ccccc1-c1nnco1", "cell shape (Z-score)": -0.599},
      {"smiles": "CCC(C)(C)N=C(NC#N)Nc1cccnc1", "cell shape (Z-score)": -3.06},
      {"smiles": "CCOC(=O)C1=C(C)NC(=S)NC1c1cccc(O)c1", "note": "(centres undefined)", "cell shape (Z-score)": 0.93},
      {"smiles": "O=c1cc(-c2ccccc2)oc2ccc(O)cc12", "cell shape (Z-score)": "5.06 ± 3.6"},
      {"smiles": "NC(=O)N1C(=O)C(C(=O)c2cccs2)c2cc(Cl)ccc21", "note": "(centres undefined)", "cell shape (Z-score)": -0.469},
      {"smiles": "Cc1c(C2CCN(CCc3ccccc3)CC2)noc1-c1ccc(Cl)cc1", "cell shape (Z-score)": -0.315},
      {"smiles": "O=C1[C@H](Cc2ccc(O)cc2)N2C(=O)CCN(C(=O)NCc3ccccc3)[C@H]2CN1Cc1cccc2ccccc12", "cell shape (Z-score)": 0.847},
      {"smiles": "C[C@@H]1O[C@@H](O[C@@H]2CC[C@@]3(C)C(CC[C@]4(C)C3CC=C3[C@@H]5CC(C)(C)CC[C@]5(C(=O)O[C@@H]5O[C@H](CO)[C@@H](O)[C@H](O)[C@H]5O)CC[C@]34C)[C@]2(C)CO)[C@H](O)[C@H](O[C@@H]2OC[C@@H](O)[C@H](O)[C@H]2O)[C@H]1O", "note": "(some centres undefined)", "cell shape (Z-score)": 0.722},
      {"smiles": "C[C@H]1C[C@@H]2[C@H]([C@@H](O)C[C@@]3(C)[C@H]2CC[C@]3(O)C(=O)CO)[C@@]2(C)C=CC(=O)C=C12", "cell shape (Z-score)": 3.78},
      {"smiles": "CC1(C)CC[C@]2(C(=O)O[C@@H]3O[C@H](CO)[C@@H](O)[C@H](O)[C@H]3O)CC[C@]3(C)C(=CCC4[C@@]5(C)C[C@@H](O)[C@H](O)[C@@](C)(COC(=O)c6cc(O)c(O)c(O)c6)C5[C@H](O)C[C@]43C)[C@@H]2C1", "note": "(some centres undefined)", "cell shape (Z-score)": -0.21},
      {"smiles": "N=C(NCCCCCCNC(=N)NC(=N)Nc1ccc(Cl)cc1)NC(=N)Nc1ccc(Cl)cc1", "cell shape (Z-score)": -6.88},
      {"smiles": "COc1cc(/C=C/CO[C@@H]2O[C@H](CO)[C@@H](O)[C@H](O)[C@H]2O)ccc1O", "cell shape (Z-score)": 1.26},
      {"smiles": "CN(C)C1C(=O)C(C(N)=O)C(=O)C2(O)C(=O)C3C(=O)c4c(O)ccc(Cl)c4C(O)C3CC12", "note": "(centres undefined)", "cell shape (Z-score)": -2.82},
      {"smiles": "CO[C@H]1C[C@H](O[C@H]2[C@H](C)[C@@H](O[C@@H]3O[C@H](C)C[C@H](N(C)C)[C@@H]3OC(C)=O)[C@@H](C)C[C@]3(CO3)C(=O)[C@H](C)[C@@H](OC(C)=O)[C@@H](C)[C@@H](C)OC(=O)[C@@H]2C)O[C@@H](C)[C@@H]1OC(C)=O", "cell shape (Z-score)": 3.12},
      {"smiles": "C[C@H](CO)N1C[C@H](C)[C@H](CN(C)C(=O)NC2CCCCC2)Oc2c(NS(=O)(=O)c3ccc(F)cc3)cccc2C1=O", "cell shape (Z-score)": 1.99},
      {"smiles": "COc1ccc(C(=O)NCCc2ccccc2)cc1Cl", "cell shape (Z-score)": 2.08},
      {"smiles": "C=C[C@@]1(C)C[C@@]2(OC[C@@]3(C)O[C@@H]23)Oc2c1c(=O)oc1cccc(C)c21", "cell shape (Z-score)": "-0.147 ± 1.4"},
      {"smiles": "Cc1cc2cc3c(C)cc(=O)oc3c(C)c2o1", "cell shape (Z-score)": -4.76},
      {"smiles": "Nc1nc(OCc2cc(Br)cs2)c2[nH]cnc2n1", "cell shape (Z-score)": 4.54},
      {"smiles": "Clc1ccc2nsnc2c1NC1=NCCN1", "cell shape (Z-score)": 0.611},
      {"smiles": "Cc1c(C)c2c(c(C)c1O)CCC(C)(C(=O)O)O2", "note": "(centres undefined)", "cell shape (Z-score)": 3.07},
      {"smiles": "O=C1c2ccc(O)cc2C(=O)c2ccc(O)cc21", "cell shape (Z-score)": -2.6},
      {"smiles": "CC(CCc1ccccc1)NCC(O)c1ccc(O)c(C(N)=O)c1", "note": "(centres undefined)", "cell shape (Z-score)": 1.37},
      {"smiles": "C[C@H]1CN([C@@H](C)CO)C(=O)Cc2cc(NC(=O)NC3CCCCC3)ccc2O[C@H]1CN(C)C(=O)Nc1cccc2ccccc12", "cell shape (Z-score)": 0.901}
    ]}
  ]
}
